Reference: the supplement of paper PMC7858590
Values joined by “and” are separate entries in the source; they are usually repeats but may differ in a detail not shown here. Equal values may be shown once. The full ranking holds about 3,800 compounds; the median of “cell shape (eccentricity) Z-score vs DMSO control” is about 1.1, and the lowest 2% start at about -4.7. This is one part of the list.

What follows are compounds tested on human monocyte-derived macrophages (M0) (assay: cell shape (eccentricity) Z-score vs DMSO control; higher = more elongated, M2-like morphology). Conditions: 20 µM; 24 h; macrophage state: M0 (M-CSF).
Description: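 Primary human monocyte-derived macrophages (M-CSF differentiated, pooled from 4 donors, 5000 cells/well in 384-well plates) were treated with each compound at 20 uM for 24 h, then fixed and stained with phalloidin/DAPI and imaged on an Opera Phenix (6 fields, about 1000 cells/well). Cell eccentricity was measured with CellProfiler, and a Z-score (t-test) was computed against 4 DMSO control wells in the same row. Negative values mean round (M1-like) cells and positive values mean elongated (M2-like) cells; the paper's hit cutoffs are Z <= -4 (M1) and Z >= 6 (M2). Scale: negative = round, M1-like.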

SMILES	cell shape (Z-score)
CCCCCCC/C=C/C(=O)CCc1ccc(O)c(OC)c1	-2.26
O=c1cc(-c2ccc(O[C@@H]3O[C@H](CO)[C@@H](O)[C@H](O)[C@H]3O)cc2)oc2cc(O)cc(O)c12	4.17
Cc1cc(O)c2c(c1)C(=O)c1cc(OC3OC(COC(=O)CC(=O)O)C(O)C(O)C3O)cc(O)c1C2=O (stereo not given)	4.04
CC(C)OC(=O)C(C)(C)Oc1ccc(C(=O)c2ccc(Cl)cc2)cc1	0.0442
CC(C)(Sc1ccc(CCN(CCCCC2CCCCC2)C(=O)NC2CCCCC2)cc1)C(=O)O	-1
C[C@H](CO)N1C[C@H](C)[C@H](CN(C)Cc2ccc3c(c2)OCCO3)OCc2cn(nn2)CCCC1=O	4.71
COc1ccc([C@H]2COc3c(ccc(O)c3OC)C2)c(OC)c1O	3.03
CC1CC(=O)C2=C(CCC34OC23C(=O)c2cccc(O)c2C4O)C1 (stereo not given)	1.22
CCc1cccc2c3c([nH]c12)C(CC)(CC(=O)O)OCC3 (stereo not given)	1.36
O=C(O)c1ccccc1-c1c2cc(I)c(=O)c(I)c-2oc2c(I)c(O)c(I)cc12	0.806
Clc1ccccc1CNCC1CCC(CNCc2ccccc2Cl)CC1 (stereo not given)	1.02
O=C(CN1CCN(Cc2ccc3c(c2)OCO3)CC1)N1c2ccccc2Sc2ccccc21	-1.37
COC(=O)CCC(=O)CN	1.27
Cc1cc(O)cc(C)c1Cl	0.653
CO[C@H]1/C=C/O[C@@]2(C)Oc3c(C)c(O)c4c(O)c(c5c(nc6cc(C)ccn65)c4c3C2=O)NC(=O)/C(C)=C\C=C\[C@H](C)[C@H](O)[C@@H](C)C(O)[C@@H](C)[C@H](OC(C)=O)[C@@H]1C (stereo not given in full)	-2.16
COC(=O)c1ccc([C@H]2c3[nH]c4ccccc4c3C[C@H](C(=O)OC)N2C(=O)CCl)cc1	-2.13
Clc1ccc2c(c1)CCc1cccnc1C2=C1CCNCC1	-2.88
COc1cc(C=O)c([N+](=O)[O-])cc1OC	2.74
Oc1cccc(O)c1	5.8
COc1cc(/C=C/C(=O)OC2C(COC(=O)c3cc(OC)c(OC)c(OC)c3)OC(OC3(CO)OC(CO)C(O)C3O)C(O)C2O)cc(OC)c1OC (stereo not given)	0.742
CCCOc1ccc2nc(NC(=O)OC)sc2c1	-3.57
Cc1ccccc1N1CCN(S(=O)(=O)CC23CCC(C[C@@H]2NC(=O)[C@@H](N)CCS(C)(=O)=O)C3(C)C)CC1 (stereo not given in full)	2.02
CCCCN(CCCC)CCCC.Nc1ncnc2c1ncn2C1OC(COP(=O)(O)O)C(O)C1O (stereo not given)	0.459

SMILES	cell shape (Z-score)
COc1c(O)cc2oc(-c3ccc(O)c(O)c3)cc(=O)c2c1O	1.81
Cc1c(O)c(=O)n(-c2ccccc2)n1C	1.53
Nc1cc(-c2ccncc2)c[nH]c1=O	0.0533
COc1c(OC/C=C(\C)CC2C=C(C)C(=O)O2)ccc2ccc(=O)oc12 (stereo not given)	-1.43
CS(=O)(=O)Nc1c(O)ccc2c1CCCC2C1=NCCN1 (stereo not given)	0.854
COc1ccc2c(c1)OC(C(=O)c1ccccc1)C2=O (stereo not given)	-0.83
C[C@H]1[C@H](C)CC[C@]2(C(=O)O)CC[C@]3(C)C(=CCC4[C@@]5(C)C[C@@H](O)[C@H](O)[C@@](C)(CO)C5CC[C@]43C)[C@H]12 (stereo not given in full)	2.15
COC(=O)C=Cc1cccc(N(Cc2ccc(-c3ccc(N(C)C)cc3)cc2)C(=O)C2CCCCC2)c1	-1.18
CC1(C)O[C@@H]2CC3C4C[C@H](F)C5=CC(=O)C=CC5(C)C4C(O)CC3(C)[C@]2(C(=O)CO)O1 (stereo not given in full)	-1.27
CN1CCc2cc(Cl)c(O)cc2[C@@H](c2ccccc2)C1	3.71
O=C(NC1CCN(Cc2ccccc2)CC1)c1ccc(I)cc1	-1.38
CCCc1c(OCCCOc2ccc(OCC(=O)O)cc2)ccc(CC=O)c1O	-1.29
CC(=O)OC(C)(C)/C=C/C(=O)[C@](C)(O)[C@H]1C(O)C[C@@]2(C)[C@@H]3CC=C4[C@@H](C=C(O[C@@H]5O[C@H](CO)[C@@H](O)[C@H](O)[C@H]5O)C(=O)C4(C)C)[C@]3(C)C(=O)C[C@]12C (stereo not given in full)	0.718
COc1cc(C)c(C(=O)Oc2cc(C)c(C(=O)Oc3cc(C)c(C(=O)NC(C)C(=O)O)c(O)c3)c(O[C@@H]3O[C@H](CO)[C@@H](O)[C@H](O)[C@H]3O)c2)c(OC)c1 (stereo not given in full)	0.361
CC(=O)O[C@@H]1c2c(ccc3ccc(=O)oc23)O[C@@H]1C(C)(C)OC(=O)C=C(C)C	3.11
CCCCc1ccc2[nH]c(NC(=O)OC)nc2c1	-5.71 and -2.34
CC(C)NC[C@@H](O)c1ccc(NS(C)(=O)=O)cc1	-0.104
CC(C)C(NS(=O)(=O)c1ccc(-c2ccc(Br)cc2)cc1)C(=O)O (stereo not given)	2.19
CC(C)SC(=N)N	2.56
CN(C)CCC1(c2ccc(Cl)cc2)Cc2ccccc2C(=O)O1 (stereo not given)	-0.315
NCCCCNS(=O)(=O)c1ccc2c(Cl)cccc2c1	2.07
COc1cc(C2OC[C@@H]3[C@@H](c4cc(OC)c(O)c(OC)c4)OC[C@H]23)cc(OC)c1O (stereo not given in full)	0.11

Laid out differently: results already given.
CS(=O)(=O)Nc1c(O)ccc2c1CCCC2C1=NCCN1 (stereo not given)
  cell shape (Z-score): 0.854
COc1ccc2c(c1)OC(C(=O)c1ccccc1)C2=O (stereo not given)
  cell shape (Z-score): -0.83
C[C@H]1[C@H](C)CC[C@]2(C(=O)O)CC[C@]3(C)C(=CCC4[C@@]5(C)C[C@@H](O)[C@H](O)[C@@](C)(CO)C5CC[C@]43C)[C@H]12 (stereo not given in full)
  cell shape (Z-score): 2.15
